Our source for the binding values is patent US20200230201A1 (CITY OF HOPE, published 2020).

The chains behind the UniProt entries cited, without tags or fusion partners.
UniProt Q04206: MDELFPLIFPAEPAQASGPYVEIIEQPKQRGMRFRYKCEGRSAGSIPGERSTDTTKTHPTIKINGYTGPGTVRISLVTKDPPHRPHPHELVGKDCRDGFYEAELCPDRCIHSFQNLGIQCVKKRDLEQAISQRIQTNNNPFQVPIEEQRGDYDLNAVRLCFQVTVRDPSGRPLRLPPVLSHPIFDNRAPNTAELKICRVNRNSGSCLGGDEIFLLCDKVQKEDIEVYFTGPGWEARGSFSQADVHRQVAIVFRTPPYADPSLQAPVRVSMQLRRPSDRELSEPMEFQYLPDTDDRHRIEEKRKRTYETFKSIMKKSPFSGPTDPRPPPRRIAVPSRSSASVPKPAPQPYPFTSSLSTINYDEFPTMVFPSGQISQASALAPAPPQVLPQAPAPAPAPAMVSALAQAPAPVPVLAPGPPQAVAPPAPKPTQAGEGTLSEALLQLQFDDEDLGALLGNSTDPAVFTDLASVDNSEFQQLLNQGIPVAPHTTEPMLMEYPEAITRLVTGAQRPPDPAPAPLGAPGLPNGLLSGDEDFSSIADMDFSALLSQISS

No constants are given. Whether binding was seen depends on the method and setting. In cells and extracts the contact can be indirect. Some binding calls cover weakened binding; strength is not graded here.

The target of test [1] is RELA (wild type) (UniProt Q04206). The experiment in a line: Co-IP, RELA pulldown, western blot for TWIST1, transfected HEK293 cells. A general note: Immunoblotting shows a protein as a band on a membrane.
For test [2] the target is unchanged. The experiment in a line: Co-IP of RELA, western blot for TWIST1, transfected HEK-293 cells.
For test [3] the target is unchanged. The experiment in a line: Co-IP (FIG. 2B legend).

B1: TWIST1 (wild type, Myc-His tagged) (other, not shown: small tags and cut ends)
chain: MMQDVSSSPVSPADDSLSNSEEEPDRQQPPSGKRGGRKRRSSRRSAGGGAGPGGAAGGGVGGGDEPGSPAQGKRGKKSAGCGGGGGAGGGGGSSSGGGSPQSYEELQTQRVMANVRERQRTQSLNEAFAALRKIIPTLPSDKLSKIQTLKLAARYIDFLYQVLQSDELDSKMASCSYVAHERLSYAFSVWRMEGAWSMSASH
As to B1, the binding entry with RELA (wild type) [1] and in the test with RELA (wild type) [2] was “binds” in each case.

B2: TWIST1 W190A (other, not shown: small tags and cut ends)
chain: MMQDVSSSPVSPADDSLSNSEEEPDRQQPPSGKRGGRKRRSSRRSAGGGAGPGGAAGGGVGGGDEPGSPAQGKRGKKSAGCGGGGGAGGGGGSSSGGGSPQSYEELQTQRVMANVRERQRTQSLNEAFAALRKIIPTLPSDKLSKIQTLKLAARYIDFLYQVLQSDELDSKMASCSYVAHERLSYAFSVARMEGAWSMSASH
Take B2: the binding entry with RELA (wild type) [1] and with RELA (wild type) [3] was “binds” throughout.

B3: TWIST1 E193A (other, not shown: small tags and cut ends)
chain: MMQDVSSSPVSPADDSLSNSEEEPDRQQPPSGKRGGRKRRSSRRSAGGGAGPGGAAGGGVGGGDEPGSPAQGKRGKKSAGCGGGGGAGGGGGSSSGGGSPQSYEELQTQRVMANVRERQRTQSLNEAFAALRKIIPTLPSDKLSKIQTLKLAARYIDFLYQVLQSDELDSKMASCSYVAHERLSYAFSVWRMAGAWSMSASH
Turning to B3, the binding result with RELA (wild type) [1] and in the test with RELA (wild type) [3] was “binds” each time.

B4: TWIST1 R191A (other, not shown: small tags and cut ends)
chain: MMQDVSSSPVSPADDSLSNSEEEPDRQQPPSGKRGGRKRRSSRRSAGGGAGPGGAAGGGVGGGDEPGSPAQGKRGKKSAGCGGGGGAGGGGGSSSGGGSPQSYEELQTQRVMANVRERQRTQSLNEAFAALRKIIPTLPSDKLSKIQTLKLAARYIDFLYQVLQSDELDSKMASCSYVAHERLSYAFSVWAMEGAWSMSASH
Regarding B4, the binding result with RELA (wild type) [1] and with RELA (wild type) [3] was “binds” in each case.
